From PubChem BioAssay AID1671190 (National Center for Advancing Translational Sciences (NCATS), 2021)
Among all 580,000 compounds or so, about 6,100 (1.1%) were called active. Inconclusive results, whose numbers are uncertain, are shown with a selection of clear calls. Calls follow the shape of the dose curve; as a rule, active = well fitted inhibition curve with a large enough effect; inconclusive = small, poorly fitted or top-dose-only effect, or another doubt; inactive = no such curve, though single readings can be large or run the other way. A potency beside an inconclusive call is a rough fit, not a confirmed value.

Amino acid sequences for entries named in this document (tags omitted). A change or cut given only in a name is not applied to a line headed by its entry.
UniProt P18054: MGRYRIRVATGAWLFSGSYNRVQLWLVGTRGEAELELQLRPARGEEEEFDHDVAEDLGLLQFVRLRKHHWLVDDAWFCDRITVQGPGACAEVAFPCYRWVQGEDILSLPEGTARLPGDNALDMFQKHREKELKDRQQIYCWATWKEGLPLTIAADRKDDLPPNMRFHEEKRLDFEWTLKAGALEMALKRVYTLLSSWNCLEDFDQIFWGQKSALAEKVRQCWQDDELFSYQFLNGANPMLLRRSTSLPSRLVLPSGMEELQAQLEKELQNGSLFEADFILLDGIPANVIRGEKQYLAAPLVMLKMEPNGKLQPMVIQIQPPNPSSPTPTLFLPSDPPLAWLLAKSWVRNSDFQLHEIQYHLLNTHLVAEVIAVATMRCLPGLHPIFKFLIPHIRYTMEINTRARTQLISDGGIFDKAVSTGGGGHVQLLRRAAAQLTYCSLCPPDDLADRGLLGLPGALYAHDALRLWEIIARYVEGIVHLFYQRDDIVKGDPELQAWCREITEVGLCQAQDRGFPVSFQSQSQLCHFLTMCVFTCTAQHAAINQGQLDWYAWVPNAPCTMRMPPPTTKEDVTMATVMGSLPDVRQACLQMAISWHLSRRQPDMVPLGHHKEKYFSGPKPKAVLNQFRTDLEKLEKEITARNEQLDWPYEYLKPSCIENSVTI

Each compound was assayed against Polyunsaturated fatty acid lipoxygenase ALOX12 (Homo sapiens) (UniProt P18054) (assay: Primary qHTS assay for inhibitors of human arachidonate 12S-lipoxygenase (ALOX12): Round 2). Settings: purified 12hLO, xylenol orange hydroperoxide absorbance; series mostly up to 108 µM.
Method in brief: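 Purified human 12hLO (150 nM final) in 25 mM Hepes, 0.01% Triton X-100, pH 7.0 was preincubated 15 min at room temperature with compound. Then 40 uM arachidonic acid was added, 30 min. Hydroperoxide was read by Fe-XO absorbance ratio 573/405 nm.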
Potency is read from the fitted curve at half-maximal effect.

| Structure (SMILES) | Potency |
| --- | --- |
| Cc1ccccc1OCCCC(=O)Nc1ccc(N2CCOCC2)cc1 | inconclusive: 39.8 µM [inhibitor, partial curve, poor fit] |
| O=C(NC(=S)Nc1cccc2c(O)cccc12)c1ccccc1[N+](=O)[O-] | inconclusive: 39.8 µM [inhibitor, partial curve, poor fit] |
| CC(C)n1c(=S)[nH]c2cc(C(F)(F)F)ccc21 | inconclusive: 79.4 µM [inhibitor, partial curve, poor fit] |
| CCc1ccc(S(=O)(=O)N2CCN(c3ccc(NCc4ccccc4)nn3)CC2)cc1 | inactive |
| CCOc1ccc(S(=O)(=O)Nc2cc(C(=O)N(C)C)ccc2N2CCNCC2)cc1 | inconclusive: 12.6 µM [inhibitor, full curve, poor fit] |
| COC(=O)c1ccc(NC(=O)N2CC(Oc3cccc(-c4nc(C)no4)c3)C2)cc1 | inconclusive: 79.4 µM [inhibitor, partial curve] |
| O=C(O)CN=C1NC2(CCCC2)Cc2ccccc21 | inactive |
| Cc1cccc(NC(=O)NCCOCCn2c(=O)oc3ccccc32)c1C | inactive |
| c1ccc2c(c1)NCC1CCCN21 (configuration not stated) | inconclusive: 44.7 µM [inhibitor, partial curve, poor fit] |
| COc1ccc(OC)c(NC(=S)NCc2ccc(S(N)(=O)=O)cc2)c1 | inconclusive: 79.4 µM [inhibitor, partial curve, poor fit] |
| Cc1cc(C)c2nc(N3CCCC3)c(C#N)cc2c1 | inconclusive: 15.8 µM [inhibitor, partial curve, poor fit] |
| CC(=O)Nc1cc(-c2ccccc2)nn1Cc1cccc(Cl)c1 | inconclusive: 126 µM [inhibitor, partial curve, poor fit] |
| COc1ccc(CN2C(=O)c3cccc4cccc2c34)cc1F | inconclusive: 79.4 µM [inhibitor, partial curve, poor fit] |
| Cc1cccc(-c2noc(-c3ccccc3C(=O)NCC3CCCO3)n2)c1 (configuration not stated) | inconclusive: 100 µM [inhibitor, single point] |
| Cc1ccc(S(=O)(=O)N2CCOCC2)cc1C(=O)Nc1ccc2c(c1)CCC2 | inconclusive: 39.8 µM [inhibitor, partial curve, poor fit] |
| O=C(Cn1nc2n(c1=O)CCCC2)NCc1ccccc1 | inactive |
| Cc1ccc(S(=O)(=O)C(CC(=O)c2ccccc2)C(=O)c2ccc(Cl)cc2)cc1 (configuration not stated) | inconclusive: 0.199 µM [inhibitor, full curve, poor fit] |
| Cc1ccc(CNC(=O)N2CCC(N3CC4CC(C3)[C@H]3CCCC(=O)N3C4)CC2)cc1 (some centres not stated) | inactive |
| COc1ccc(NC(=S)Nc2ccc(OC)cc2OC)c(OC)c1 | inconclusive: 50.1 µM [inhibitor, partial curve, poor fit] |
| CC(C)CCNC(=O)c1cc2c(=O)n3ccccc3nc2s1 | inactive |
| CCOc1cc(C2C(C(=O)c3ccco3)=C(O)C(=O)N2Cc2ccccc2)ccc1O (configuration not stated) | inconclusive: 50.1 µM [inhibitor, partial curve, poor fit] |

| Structure (SMILES) | Potency |
| --- | --- |
| CCc1ccc(NC2=NCC(=O)N2c2ccc3c(c2)OCCO3)cc1 | inconclusive: 8.91 µM [inhibitor, partial curve, poor fit] |
| CC12CC3CC(C)(C1)CC(NC(=O)c1cccc4c(Br)cccc14)(C3)C2 | inactive |
| Cc1noc(NS(=O)(=O)c2ccc(NC(=O)c3ccc(Br)cc3)cc2)c1C | inconclusive: 50.1 µM [inhibitor, partial curve, poor fit] |
| COc1ccccc1Nc1nc(-c2ccc(CNC(C)=O)cc2)cs1 | inconclusive: 35.5 µM [inhibitor, partial curve, poor fit] |
| COc1ccc(C2C3=C(N=C4SCC(=O)N42)c2ccccc2CC3)cc1 (configuration not stated) | inactive |
| COc1ccccc1N1CCN(C(=O)c2c(C)cc(=O)oc2C)CC1 | inactive |
| O=C(O)C1=CC[C@@H](c2ccc(Cl)cc2)N(S(=O)(=O)c2ccc(Cl)cc2)[C@H]1c1ccccc1 | inconclusive: 50.1 µM [inhibitor, partial curve, poor fit] |
| O=C(Nc1cccnc1)c1ccc(CSc2ccc(Cl)cc2)cc1 | inactive |
| CCC(=O)Nc1cc(OC)c(NC(=S)Nc2ccccc2CC)cc1OC | inconclusive: 100 µM [inhibitor, partial curve, poor fit] |
| Cc1ccc(S(=O)(=O)N2CCCC(Cn3cnc4cccnc43)C2)cc1C (configuration not stated) | inactive |
| CC(=S)c1c(C)cc2cc(C)ccn12 | inconclusive: 39.8 µM [inhibitor, partial curve, poor fit] |
| O=C(CN1CCN(C2CCCCC2)CC1)Nc1cccc2ccccc12 | inconclusive: 1.78 µM [inhibitor, full curve, poor fit] |
| CN1C[C@@H](NC(=O)c2ccccc2)C[C@H]1c1nc(-c2ccccc2)no1 | inconclusive: 100 µM [inhibitor, partial curve] |
| CC(C)[C@H](NS(=O)(=O)c1ccccc1)C(=O)OCC(=O)Nc1ccccc1Sc1ccccc1 | inconclusive: 141 µM [inhibitor, partial curve, poor fit] |
| CCNC(=S)Nc1ccccc1Cl | inconclusive: 56.2 µM [inhibitor, partial curve, poor fit] |
| CCCc1cc(Nc2ccccc2C)n2ncnc2n1 | inconclusive: 89.1 µM [inhibitor, partial curve, poor fit] |
| CNC(=S)N1CCn2cccc2C1c1ccc(F)cc1 (configuration not stated) | inconclusive: 100 µM [inhibitor, single point] |
| COCCn1c(SCc2ccc(Cl)cc2)nnc1-c1ccncc1 | inconclusive: 79.4 µM [inhibitor, single point] |
| Cc1onc(-c2c(F)cccc2Cl)c1C(=O)NCc1ccco1 | inactive |
| CCOc1cc(/C=C/c2cc(C(=O)O)c3ccccc3n2)ccc1O | inconclusive: 50.1 µM [inhibitor, partial curve, poor fit] |
| CC(C)c1[nH]nc2c1C(c1ccc(F)cc1)N(Cc1ccccc1)C2=O (configuration not stated) | inconclusive: 50.1 µM [inhibitor, partial curve, poor fit] |

Two compounds drawn at random from the list so far:

| Structure (SMILES) | Potency |
| --- | --- |
| O=C(Nc1cccnc1)c1ccc(CSc2ccc(Cl)cc2)cc1 | inactive |
| O=C(O)C1=CC[C@@H](c2ccc(Cl)cc2)N(S(=O)(=O)c2ccc(Cl)cc2)[C@H]1c1ccccc1 | inconclusive: 50.1 µM [inhibitor, partial curve, poor fit] |
